Source: paper PMC11335240
These are yes or no findings as the source states them, for the method shown. Binding seen in cells or lysates may run through a third protein. Some results given as binding are weak or reduced against the parent protein; the word gives no strength.

Biological target: T1, ZMYND12 (Zinc Finger, MYND domain containing 12) (mouse (endogenous in testis)) (UniProt A2BGJ5)
T1 sequence: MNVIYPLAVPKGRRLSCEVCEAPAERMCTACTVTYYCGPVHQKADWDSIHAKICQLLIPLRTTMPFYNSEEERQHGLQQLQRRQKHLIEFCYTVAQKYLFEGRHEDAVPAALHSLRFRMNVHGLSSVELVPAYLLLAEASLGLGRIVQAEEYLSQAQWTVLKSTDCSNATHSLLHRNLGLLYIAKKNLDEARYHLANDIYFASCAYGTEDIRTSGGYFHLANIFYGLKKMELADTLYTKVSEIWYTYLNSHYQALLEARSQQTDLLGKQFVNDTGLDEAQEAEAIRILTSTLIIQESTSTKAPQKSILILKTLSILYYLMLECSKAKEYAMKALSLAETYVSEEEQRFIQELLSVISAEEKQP
Test: co-IP; testicular proteins extracted in RIPA buffer, precleared, incubated overnight at 4 °C with antibody, protein A/G magnetic beads, 5 washes with RIPA buffer, western blot; rabbit IgG as negative control

B1: TTC29 (protein, UniProt Q80VM3 1-471)
chain: MATFPPLPMTHTRLAILARQKLPCSSKKIPRAQLIKEKEDIDYYLEQNFKGLSKEEVAAHRNSYKKSICVDMLRDGFHKSFTELFALMEQWDKLPEAAKAQSLFWQQRPLEDQPDKLDNFYHYLTRAEAAERKGYYEEVYNNLYALACYFDNSEDKWVRNHFYERCFNIAQLIKADGGKKEAEAESHMGLLFEEEGELLKAAEHYEAFHELTHGRLWKDGTGQLLNLVACESLVRTYRLLSDRMLENKDYKQAIKILIKASEIAREGNDRSMEGEASYYLGLAHLASGEYETALTVLNRYSEISTSLDDDHGLGRAYEAIAKALQSQGETTEAINYLEKFVTIARNNLQSLDMIRACTMLGDIYNEKGQYSKASEYFQQAFSTAMELMKTALMDETKVHYGIARAHQMMLAMKGYIESADSNGLNCLLSWKETRTQIEYDPILGESRRATEDNIYQLPDAEEETRRSPENQ
  binding: binds
